Experimental data: patent publication US20190119397A1 (ZIELBIO, published 2019)
Results are given in words; binding and its absence hold for the method and conditions named. Some entries that bind do so weakly or less than the wild type. Blank lines part the entries; values can stand above or below the binder they belong to.

The chains behind the UniProt entries cited, without tags or fusion partners. Where a name states a change or a piece, a line headed by the entry shows the natural chain unless it says otherwise.
UniProt Q15149: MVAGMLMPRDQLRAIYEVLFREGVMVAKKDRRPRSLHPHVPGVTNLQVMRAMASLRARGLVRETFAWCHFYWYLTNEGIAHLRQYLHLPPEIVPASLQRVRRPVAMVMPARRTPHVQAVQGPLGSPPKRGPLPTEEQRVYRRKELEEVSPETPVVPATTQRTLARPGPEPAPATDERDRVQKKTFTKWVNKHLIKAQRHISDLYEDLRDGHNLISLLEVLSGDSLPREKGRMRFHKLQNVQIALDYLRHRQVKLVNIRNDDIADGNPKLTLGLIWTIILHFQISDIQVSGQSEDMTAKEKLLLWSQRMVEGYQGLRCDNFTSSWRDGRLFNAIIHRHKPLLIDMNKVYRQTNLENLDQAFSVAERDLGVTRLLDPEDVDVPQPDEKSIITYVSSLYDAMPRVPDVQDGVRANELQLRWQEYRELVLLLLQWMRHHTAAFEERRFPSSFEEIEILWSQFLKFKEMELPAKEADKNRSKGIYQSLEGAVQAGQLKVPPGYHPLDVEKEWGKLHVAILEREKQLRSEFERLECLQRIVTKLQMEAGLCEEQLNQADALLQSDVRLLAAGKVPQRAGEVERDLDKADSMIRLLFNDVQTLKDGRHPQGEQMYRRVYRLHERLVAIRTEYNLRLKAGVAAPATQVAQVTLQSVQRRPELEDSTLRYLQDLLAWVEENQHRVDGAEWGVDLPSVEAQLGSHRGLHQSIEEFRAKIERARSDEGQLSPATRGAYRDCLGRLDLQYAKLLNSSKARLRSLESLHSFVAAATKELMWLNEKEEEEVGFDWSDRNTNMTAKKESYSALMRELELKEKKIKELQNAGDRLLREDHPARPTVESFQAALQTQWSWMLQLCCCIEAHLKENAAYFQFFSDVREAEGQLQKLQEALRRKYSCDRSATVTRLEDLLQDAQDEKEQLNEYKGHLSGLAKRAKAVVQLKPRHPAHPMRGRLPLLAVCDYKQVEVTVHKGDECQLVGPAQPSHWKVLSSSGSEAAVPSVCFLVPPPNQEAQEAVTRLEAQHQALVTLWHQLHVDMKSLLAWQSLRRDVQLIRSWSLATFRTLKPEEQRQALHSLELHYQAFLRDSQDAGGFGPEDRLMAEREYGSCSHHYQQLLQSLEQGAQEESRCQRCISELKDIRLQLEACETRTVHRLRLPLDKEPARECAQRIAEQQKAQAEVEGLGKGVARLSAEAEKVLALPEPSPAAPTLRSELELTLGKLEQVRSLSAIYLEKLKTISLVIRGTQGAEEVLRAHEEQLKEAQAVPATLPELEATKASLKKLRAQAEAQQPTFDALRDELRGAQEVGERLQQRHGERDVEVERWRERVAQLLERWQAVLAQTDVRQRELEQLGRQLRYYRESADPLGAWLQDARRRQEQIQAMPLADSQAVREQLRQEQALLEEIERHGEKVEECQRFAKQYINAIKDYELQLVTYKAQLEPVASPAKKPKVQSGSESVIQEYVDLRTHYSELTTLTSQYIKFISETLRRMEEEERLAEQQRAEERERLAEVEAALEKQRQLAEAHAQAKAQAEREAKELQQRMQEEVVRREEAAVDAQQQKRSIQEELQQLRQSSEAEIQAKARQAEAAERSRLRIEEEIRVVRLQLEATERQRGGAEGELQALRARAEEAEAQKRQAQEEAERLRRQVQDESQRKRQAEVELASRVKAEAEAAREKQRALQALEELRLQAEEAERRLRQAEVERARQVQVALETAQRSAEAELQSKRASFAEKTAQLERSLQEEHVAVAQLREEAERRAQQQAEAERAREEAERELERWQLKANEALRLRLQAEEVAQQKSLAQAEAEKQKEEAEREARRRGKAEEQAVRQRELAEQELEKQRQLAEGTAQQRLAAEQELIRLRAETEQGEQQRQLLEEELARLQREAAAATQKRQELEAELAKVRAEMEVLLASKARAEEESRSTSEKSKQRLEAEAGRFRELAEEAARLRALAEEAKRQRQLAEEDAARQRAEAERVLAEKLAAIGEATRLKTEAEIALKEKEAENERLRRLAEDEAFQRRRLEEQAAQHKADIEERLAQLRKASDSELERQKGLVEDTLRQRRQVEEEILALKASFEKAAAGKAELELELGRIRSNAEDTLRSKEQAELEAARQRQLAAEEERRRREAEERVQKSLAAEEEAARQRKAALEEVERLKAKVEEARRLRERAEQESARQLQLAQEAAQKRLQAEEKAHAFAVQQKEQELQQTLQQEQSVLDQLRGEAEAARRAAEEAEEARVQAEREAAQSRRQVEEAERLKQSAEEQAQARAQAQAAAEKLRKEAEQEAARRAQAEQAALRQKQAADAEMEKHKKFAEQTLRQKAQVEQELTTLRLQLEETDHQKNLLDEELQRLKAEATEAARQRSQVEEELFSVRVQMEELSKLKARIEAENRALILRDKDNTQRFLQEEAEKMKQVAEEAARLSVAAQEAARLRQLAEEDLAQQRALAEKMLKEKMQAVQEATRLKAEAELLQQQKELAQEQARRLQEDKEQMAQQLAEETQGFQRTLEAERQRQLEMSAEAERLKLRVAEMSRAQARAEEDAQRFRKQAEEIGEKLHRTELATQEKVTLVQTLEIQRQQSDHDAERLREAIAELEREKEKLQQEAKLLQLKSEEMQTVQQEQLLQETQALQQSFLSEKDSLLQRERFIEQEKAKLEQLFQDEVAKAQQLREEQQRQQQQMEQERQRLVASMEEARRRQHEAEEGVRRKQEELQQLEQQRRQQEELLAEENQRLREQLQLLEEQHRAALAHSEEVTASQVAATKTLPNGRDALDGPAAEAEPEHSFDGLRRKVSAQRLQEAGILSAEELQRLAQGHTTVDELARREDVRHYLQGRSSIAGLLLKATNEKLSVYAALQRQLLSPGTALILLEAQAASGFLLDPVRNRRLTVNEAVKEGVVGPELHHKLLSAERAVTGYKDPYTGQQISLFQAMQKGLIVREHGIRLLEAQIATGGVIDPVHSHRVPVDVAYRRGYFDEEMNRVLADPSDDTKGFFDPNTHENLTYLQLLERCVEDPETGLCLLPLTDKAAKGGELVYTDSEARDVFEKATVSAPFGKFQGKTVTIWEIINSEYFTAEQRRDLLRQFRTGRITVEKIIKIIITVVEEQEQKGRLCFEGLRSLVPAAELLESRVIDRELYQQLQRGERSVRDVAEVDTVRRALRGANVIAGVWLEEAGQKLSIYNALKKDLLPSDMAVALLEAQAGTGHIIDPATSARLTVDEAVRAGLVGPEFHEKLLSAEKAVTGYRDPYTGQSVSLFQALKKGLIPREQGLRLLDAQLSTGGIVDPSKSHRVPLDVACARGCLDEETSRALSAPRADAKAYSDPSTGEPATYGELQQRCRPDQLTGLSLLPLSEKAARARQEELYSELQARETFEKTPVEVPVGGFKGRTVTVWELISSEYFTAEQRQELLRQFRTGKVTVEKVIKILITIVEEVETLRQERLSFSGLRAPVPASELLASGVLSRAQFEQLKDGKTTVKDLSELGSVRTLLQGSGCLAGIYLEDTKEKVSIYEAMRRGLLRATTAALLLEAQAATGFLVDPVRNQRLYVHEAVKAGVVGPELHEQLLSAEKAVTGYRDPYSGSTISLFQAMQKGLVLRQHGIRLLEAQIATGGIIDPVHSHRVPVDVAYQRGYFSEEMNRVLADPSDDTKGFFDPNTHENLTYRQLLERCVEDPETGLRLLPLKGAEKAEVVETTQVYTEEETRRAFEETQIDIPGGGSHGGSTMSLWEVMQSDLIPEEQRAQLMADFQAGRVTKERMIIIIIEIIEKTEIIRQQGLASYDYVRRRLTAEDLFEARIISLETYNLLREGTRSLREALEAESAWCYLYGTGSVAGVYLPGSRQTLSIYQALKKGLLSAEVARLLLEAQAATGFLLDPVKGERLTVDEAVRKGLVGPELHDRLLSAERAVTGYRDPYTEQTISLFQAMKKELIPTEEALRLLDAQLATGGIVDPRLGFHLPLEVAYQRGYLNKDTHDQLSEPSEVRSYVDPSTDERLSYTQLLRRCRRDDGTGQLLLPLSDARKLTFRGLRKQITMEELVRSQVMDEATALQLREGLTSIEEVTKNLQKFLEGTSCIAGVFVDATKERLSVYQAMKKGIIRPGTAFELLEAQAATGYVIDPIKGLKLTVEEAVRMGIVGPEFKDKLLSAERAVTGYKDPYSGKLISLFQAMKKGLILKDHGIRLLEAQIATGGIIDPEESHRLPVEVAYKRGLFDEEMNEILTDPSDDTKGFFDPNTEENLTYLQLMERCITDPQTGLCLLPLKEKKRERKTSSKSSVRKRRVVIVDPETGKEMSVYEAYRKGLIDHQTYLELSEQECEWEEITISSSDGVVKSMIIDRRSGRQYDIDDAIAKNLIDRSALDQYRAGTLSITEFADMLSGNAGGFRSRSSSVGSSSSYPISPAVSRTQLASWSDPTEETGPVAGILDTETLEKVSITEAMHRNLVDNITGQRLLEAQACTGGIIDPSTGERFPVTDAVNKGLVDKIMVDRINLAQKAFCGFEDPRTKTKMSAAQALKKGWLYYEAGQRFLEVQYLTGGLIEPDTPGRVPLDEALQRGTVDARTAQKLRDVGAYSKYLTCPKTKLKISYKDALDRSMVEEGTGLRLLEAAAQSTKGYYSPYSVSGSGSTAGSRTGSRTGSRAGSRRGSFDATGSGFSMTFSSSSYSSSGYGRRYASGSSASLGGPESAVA

Key:
[1] = target: T1, plectin-1 on the surface of cancer cells (Homo sapiens, UniProt Q15149 1-4684); test: in vitro binding assay on L3.6pl cells (FIG. 3B)
[2] = target: T1, plectin-1 on the surface of cancer cells; test: in vitro binding assay on cells
[3] = target: human recombinant Sec 8 (plectin-1 Section 8) (human) (UniProt Q15149); test: ELISA of hybridoma supernatants
[4] = target: T1, plectin-1 on the surface of cancer cells; test: in vitro validation on YapC- or HPDE-coated plates (FIG. 1)

- binding [1]: binds
- binding [2]: binds
- binding [3]: binds
- binding [4]: binds
B1: PAb1 (antibody, mouse IgG2b, kappa, V domains shown)
VH: QIQLVQSGPELKKPGETVKISCKASGYTFTDYSMHWVKQAPGKGLKWMGWINTETGEPTYADDFKGRFAFSLETSASTAYLQINNLKNEDTATYFCAPGGFAYWGQGTLVTVSA
VL: DIVMTQAAPSVPVTPGESVSISCRSSKSLLHSNGNTYLYWFLQRPGQSPQLLIYRMSNLASGVPDRFSGSGSGTAFTLRISRVEAEDVGVYYCMQHLEYPLTFGAGTKLELKR
notes: Mouse hybridoma monoclonal antibody; also called Plectin-1 mAb; Plectin-1mAb

- binding [3]: binds
- binding [4]: binds
B2: PAb2 (antibody, mouse IgG1, kappa, V domains shown)
VH: EVQLVESGGDLVKPGGSLKLSCAASGFTFSRYGMSWVRQTPDKRLEWVATISIGGTYTYYPDSMKGRFTISRDNAKNTLYLQMSSLKSEDTAMYYCARRGYGNYSYYGMDYWGQGTSVTVSS
VL: DIVMTQAAFSNPVTLGTSASISCRSSKSLLHSNGITYLYWYLQKPGQSPQLLIYQMSNLASGVPDRFSSSGSGTDFTLRISRVEAEDVGVYYCAQNLELPLTFGAGTKLELKR
